Results taken from patent US20060251650A1 (CHILDREN S MEDICAL CENTER, published 2006).
Results are given in words; binding and its absence hold for the method and conditions named. Some binding calls cover weakened binding; strength is not graded here.

Sequences of proteins named here, by UniProt entry; tags and fusion partners are left off. A change or cut given only in a name is not applied to a line headed by its entry.
UniProt O14786: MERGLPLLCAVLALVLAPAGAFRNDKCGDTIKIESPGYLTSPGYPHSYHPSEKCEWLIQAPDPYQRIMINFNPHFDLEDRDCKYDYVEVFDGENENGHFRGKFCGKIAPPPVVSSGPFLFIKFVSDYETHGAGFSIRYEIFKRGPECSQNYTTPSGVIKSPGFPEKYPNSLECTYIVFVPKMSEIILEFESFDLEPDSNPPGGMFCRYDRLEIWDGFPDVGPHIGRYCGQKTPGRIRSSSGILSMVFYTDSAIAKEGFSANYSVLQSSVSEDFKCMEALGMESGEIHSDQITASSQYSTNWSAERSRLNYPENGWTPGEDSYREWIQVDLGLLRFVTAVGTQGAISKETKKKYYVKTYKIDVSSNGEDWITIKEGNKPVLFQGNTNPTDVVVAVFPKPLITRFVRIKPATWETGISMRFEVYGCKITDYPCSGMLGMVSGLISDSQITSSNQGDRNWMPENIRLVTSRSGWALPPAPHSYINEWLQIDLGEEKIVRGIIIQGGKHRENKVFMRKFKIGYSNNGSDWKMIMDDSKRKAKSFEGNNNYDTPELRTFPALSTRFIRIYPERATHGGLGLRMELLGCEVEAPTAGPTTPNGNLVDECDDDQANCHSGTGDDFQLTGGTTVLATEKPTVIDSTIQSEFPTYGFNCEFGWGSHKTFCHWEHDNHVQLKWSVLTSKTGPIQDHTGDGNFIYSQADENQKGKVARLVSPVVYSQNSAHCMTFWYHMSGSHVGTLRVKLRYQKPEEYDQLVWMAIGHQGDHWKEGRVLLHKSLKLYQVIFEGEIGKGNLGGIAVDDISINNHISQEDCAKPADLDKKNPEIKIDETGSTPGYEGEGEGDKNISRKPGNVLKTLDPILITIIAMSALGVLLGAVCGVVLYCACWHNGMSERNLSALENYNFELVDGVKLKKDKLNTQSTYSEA

How the values were obtained:
[1] = target: T1, Human VEGF165R/NP-1 (neuropilin-1) (human, UniProt O14786 22-923); assay: 125I-collapsin-1 binding to PAE/NP-1 and PAE/NP-1/KDR cells
[2] = target: T1, Human VEGF165R/NP-1 (neuropilin-1); assay: 125I-collapsin binding to PAE transfectants

B1: Recombinant chick collapsin-1 (semaphorin III) (ligand, UniProt Q90607 23-772, looked up)
chain: QHVKNNVPRLKLSYKEMLESNNIVNFNGLANSSSYHTFLLDEERSRLYVGAKDHIFSFNLVNIKEYQKIVWPVSHSRRDECKWAGKDILRECANFIKVLKTYNQTHLYACGTGAFHPMCTYIEVGSHPEDNIFRMEDSHFENGRGKSPYDPKLLTASLLVDGELYSGTAADFMGRDFAIFRTLGHHHPIRTEQHDSRWLNDPRFISAHLIPESDNPEDDKIYFFFRENAIDGEHTGKATHARIGQICKNDFGGHRSLVNKWTTFLKARLICSVPGPNGIDTHFDELQDVFLMNSKDPKNPIVYGVFTTSSNIFKGSAVCMYSMTDVRRVFLGPYAHRDGPNYQWVPYQGRVPYPRPGTCPSKTFGGFDSTKDLPDEVITFARSHPAMYNPVFPINSRPIMIKTDVDYQFTQIVVDRVDAEDGQYDVMFIGTDIGTVLKVVSIPKETWHELEEVLLEEMTVFREPTVISAMKISTKQQQLYIGSATGVSQLPLHRCDVYGKACAECCLARDPYCAWDGSSCSRYFPTAKRRTRRQDIRNGDPLTHCSDLQHHDNPSGQTLEEKIIYGVENSSTFLECSPKSQRAIVYWQFQKQNDDHKVEIKVDDRMIRTEQGLLLRSLQRRDSGIYFCHAVEHGFIQTLLKVTLEVIDTDHLEELLHKEEDADASKTKDATNSMTPSQKIWYRDFMQLINHPNLNTMDEFCEQVWKRDRKQRRQRPANAQVNTNKWKHLQENKKGRNRRTHEFERAPRSV
modifications: 125I-labelled in the binding studies
- binding [1]: binds
- binding [2]: binds
